{"source": "PubChem BioAssay AID1259405 (NCATS, 2018)", "aim": "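Mouse-designed siRNAs used to find CHO productivity engineering targets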 (primary screen)", "cell system": "Chinese hamster CHO-K1 ovary cells with stable secreted eGFP expression", "reagents": "single siRNA against mouse genes, 0.8 pmol siRNA per well (2 µl of 400 nM stock)", "duration": "3 days", "read-out": "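Percent of the per-plate non-targeting control median for intracellular GFP per well by laser scanning cytometry and for cell viability by ATP luminescence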", "reading the numbers": "GFP, % of control: higher = more GFP per well, higher productivity; viability (ATP), % of control: higher = more viable cells (more ATP)", "rule for the call": "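a knock-down is called active if GFP reaches 120% or more of non-targeting control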", "note": "The whole screen tested about 50,000 reagents; this is a part drawn at random. Of all reagents, about 4,000 (8%) are marked active. 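Mouse siRNA library applied to hamster cells; one well for each siRNA.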 Unmarked entries are inactive. Reagents against one gene are numbered here. No sequences are given here."}
{"Gene": "Gp1bb", "reagent no.": 1, "GFP, % of control": 64.4, "viability (ATP), % of control": 92.9}
{"Gene": "Gp1bb", "reagent no.": 2, "GFP, % of control": 69, "viability (ATP), % of control": 80.2}
{"Gene": "Dnaaf4", "reagent no.": 1, "GFP, % of control": 65.3, "viability (ATP), % of control": 69.7}
{"Gene": "Dnaaf4", "reagent no.": 2, "GFP, % of control": 75.3, "viability (ATP), % of control": 54.1}
{"Gene": "Dnaaf4", "reagent no.": 3, "GFP, % of control": 101, "viability (ATP), % of control": 65.6}
{"Gene": "Bckdk", "reagent no.": 1, "GFP, % of control": 82.9, "viability (ATP), % of control": 76.5}
{"Gene": "Hoxc9", "reagent no.": 1, "GFP, % of control": 90.8, "viability (ATP), % of control": 119}
{"Gene": "Hoxc9", "reagent no.": 2, "GFP, % of control": 37, "viability (ATP), % of control": 24}
{"Gene": "Hoxc9", "reagent no.": 3, "GFP, % of control": 72.1, "viability (ATP), % of control": 114}
{"Gene": "Hjurp", "reagent no.": 1, "GFP, % of control": "131 (active)", "viability (ATP), % of control": 153}
{"Gene": "Hjurp", "reagent no.": 2, "GFP, % of control": 70.9, "viability (ATP), % of control": 92.4}
{"Gene": "Hjurp", "reagent no.": 3, "GFP, % of control": 92.4, "viability (ATP), % of control": 116}
{"Gene": "Fhip2a", "reagent no.": 1, "GFP, % of control": 94.3, "viability (ATP), % of control": 62.4}
{"Gene": "Fhip2a", "reagent no.": 2, "GFP, % of control": 84.4, "viability (ATP), % of control": 102}
{"Gene": "Fhip2a", "reagent no.": 3, "GFP, % of control": 112, "viability (ATP), % of control": 80.3}
{"Gene": "Sidt1", "reagent no.": 1, "GFP, % of control": 61.1, "viability (ATP), % of control": 44.3}
{"Gene": "Sidt1", "reagent no.": 2, "GFP, % of control": 83.5, "viability (ATP), % of control": 99.1}
{"Gene": "Sidt1", "reagent no.": 3, "GFP, % of control": 118, "viability (ATP), % of control": 93.2}
{"Gene": "U2af1", "reagent no.": 1, "GFP, % of control": 61.7, "viability (ATP), % of control": 62.8}
{"Gene": "U2af1", "reagent no.": 2, "GFP, % of control": 93.1, "viability (ATP), % of control": 32}
{"Gene": "U2af1", "reagent no.": 3, "GFP, % of control": 109, "viability (ATP), % of control": 33.7}
{"Gene": "Cdk10", "reagent no.": 1, "GFP, % of control": 57.8, "viability (ATP), % of control": 55.7}
{"Gene": "Lig4", "reagent no.": 1, "GFP, % of control": 68.5, "viability (ATP), % of control": 80.7}
{"Gene": "Lig4", "reagent no.": 2, "GFP, % of control": 67, "viability (ATP), % of control": 64.6}
{"Gene": "Lig4", "reagent no.": 3, "GFP, % of control": 65.9, "viability (ATP), % of control": 94.5}
{"Gene": "Wt1", "reagent no.": 1, "GFP, % of control": 98.1, "viability (ATP), % of control": 85.5}
{"Gene": "Wt1", "reagent no.": 2, "GFP, % of control": 70, "viability (ATP), % of control": 65.3}
{"Gene": "Wt1", "reagent no.": 3, "GFP, % of control": 80.8, "viability (ATP), % of control": 69.3}
{"Gene": "Fibp", "reagent no.": 1, "GFP, % of control": 71.4, "viability (ATP), % of control": 76.5}
{"Gene": "Fibp", "reagent no.": 2, "GFP, % of control": 24.9, "viability (ATP), % of control": 23.1}
{"Gene": "Fibp", "reagent no.": 3, "GFP, % of control": 95.6, "viability (ATP), % of control": 91.3}
{"Gene": "Lce1d", "reagent no.": 1, "GFP, % of control": 102, "viability (ATP), % of control": 94}
{"Gene": "Lce1d", "reagent no.": 2, "GFP, % of control": 97.1, "viability (ATP), % of control": 121}
{"Gene": "Lce1d", "reagent no.": 3, "GFP, % of control": "200 (active)", "viability (ATP), % of control": 149}
{"Gene": "Lrrk1", "reagent no.": 1, "GFP, % of control": 58, "viability (ATP), % of control": 66.2}
{"Gene": "Lrrk1", "reagent no.": 2, "GFP, % of control": "128 (active)", "viability (ATP), % of control": 56.4}
{"Gene": "Lrrk1", "reagent no.": 3, "GFP, % of control": 111, "viability (ATP), % of control": 61.4}
{"Gene": "Myl6", "reagent no.": 1, "GFP, % of control": 84.9, "viability (ATP), % of control": 59.8}
{"Gene": "Myl6", "reagent no.": 2, "GFP, % of control": 73.7, "viability (ATP), % of control": 79.5}
{"Gene": "Lrtm1", "reagent no.": 1, "GFP, % of control": 100, "viability (ATP), % of control": 93}
{"Gene": "Lrtm1", "reagent no.": 2, "GFP, % of control": 75.5, "viability (ATP), % of control": 80.2}
{"Gene": "Lrtm1", "reagent no.": 3, "GFP, % of control": 101, "viability (ATP), % of control": 94.2}
